Test results taken from paper PMC8599684.
No constants are given. Whether binding was seen depends on the method and setting. Binding seen in cells or lysates may run through a third protein. Some results given as binding are weak or reduced against the parent protein; the word gives no strength. Where a sequence is shown, tags or fusion partners need not be part of it.

Chains of the proteins cited; added tags and fusions are not shown.
UniProt Q99728: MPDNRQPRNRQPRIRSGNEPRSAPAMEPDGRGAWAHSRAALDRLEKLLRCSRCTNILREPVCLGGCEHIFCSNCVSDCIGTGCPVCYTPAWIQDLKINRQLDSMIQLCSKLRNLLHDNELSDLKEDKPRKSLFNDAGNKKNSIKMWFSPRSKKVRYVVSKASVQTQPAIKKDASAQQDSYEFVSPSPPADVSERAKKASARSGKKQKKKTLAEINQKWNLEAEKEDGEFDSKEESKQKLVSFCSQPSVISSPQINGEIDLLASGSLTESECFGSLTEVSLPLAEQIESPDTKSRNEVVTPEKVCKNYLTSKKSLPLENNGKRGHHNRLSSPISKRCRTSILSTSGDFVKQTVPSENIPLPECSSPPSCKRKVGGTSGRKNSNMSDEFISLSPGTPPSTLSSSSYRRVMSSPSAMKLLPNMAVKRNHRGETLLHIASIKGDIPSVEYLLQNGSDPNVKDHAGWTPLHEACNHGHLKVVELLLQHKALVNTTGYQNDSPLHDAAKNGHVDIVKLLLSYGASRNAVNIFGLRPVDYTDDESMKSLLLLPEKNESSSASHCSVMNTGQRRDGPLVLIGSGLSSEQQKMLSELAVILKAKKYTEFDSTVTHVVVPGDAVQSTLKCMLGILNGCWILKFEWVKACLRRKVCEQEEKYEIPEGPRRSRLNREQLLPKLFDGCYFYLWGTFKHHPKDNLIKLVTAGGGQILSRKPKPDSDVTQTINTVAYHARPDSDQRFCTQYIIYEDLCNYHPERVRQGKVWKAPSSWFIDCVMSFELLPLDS

Target: Flag-BARD1 (WT) (UniProt Q99728)
Test: co-IP; HEK293T transfected with Vec, WT or deletion mutants of Flag-BARD1 together with GFP-RNF19A; Flag beads; immunoblot

binding: binds
B1: GFP-RNF19A (enzyme, UniProt Q9NV58 1-838)
chain: MQEQEIGFISKYNEGLCVNTDPVSILTSILDMSLHRQMGSDRDLQSSASSVSLPSVKKAPKKRRISIGSLFRRKKDNKRKSRELNGGVDGIASIESIHSEMCTDKNSIFSTNTSSDNGLTSISKQIGDFIECPLCLLRHSKDRFPDIMTCHHRSCVDCLRQYLRIEISESRVNISCPECTERFNPHDIRLILSDDVLMEKYEEFMLRRWLVADPDCRWCPAPDCGYAVIAFGCASCPKLTCGREGCGTEFCYHCKQIWHPNQTCDAARQERAQSLRLRTIRSSSISYSQESGAAADDIKPCPRCAAYIIKMNDGSCNHMTCAVCGCEFCWLCMKEISDLHYLSPSGCTFWGKKPWSRKKKILWQLGTLVGAPVGIALIAGIAIPAMIIGIPVYVGRKIHNRYEGKDVSKHKRNLAIAGGVTLSVIVSPVVAAVTVGIGVPIMLAYVYGVVPISLCRSGGCGVSAGNGKGVRIEFDDENDINVGGTNTAVDTTSVAEARHNPSIGEGSVGGLTGSLSASGSHMDRIGAIRDNLSETASTMALAGASITGSLSGSAMVNCFNRLEVQADVQKERYSLSGESGTVSLGTVSDNASTKAMAGSILNSYIPLDKEGNSMEVQVDIESKPSKFRHNSGSSSVDDGSATRSHAGGSSSGLPEGKSSATKWSKEATAGKKSKSGKLRKKGNMKINETREDMDAQLLEQQSTNSSEFEAPSLSDSMPSVADSHSSHFSEFSCSDLESMKTSCSHGSSDYHTRFATVNILPEVENDRLENSPHQCSISVVTQTASCSEVSQLNHIAEEHGNNGIKPNVDLYFGDALKETNNNHSHQTMELKVAIQTEI
